No constants are given. Whether binding was seen depends on the method and setting. Binding seen in cells or lysates may run through a third protein. Binding can be weak; no strength is given.
Molecular target: ITGB3-3×FLAG (wild type) (human) (UniProt P05106)
Test: co-IP; HCC cell lines co-transfected with wild-type or mutant SERPINA1 and ITGB3 plasmids for 48 h; immunoprecipitation with HA- or FLAG-tag antibodies

By UniProt entry, the sequences of proteins in these tests, tags left out. Where a name states a change or a piece, a line headed by the entry shows the natural chain unless it says otherwise. Residues count along the entry.
UniProt P05106, residues 27-788: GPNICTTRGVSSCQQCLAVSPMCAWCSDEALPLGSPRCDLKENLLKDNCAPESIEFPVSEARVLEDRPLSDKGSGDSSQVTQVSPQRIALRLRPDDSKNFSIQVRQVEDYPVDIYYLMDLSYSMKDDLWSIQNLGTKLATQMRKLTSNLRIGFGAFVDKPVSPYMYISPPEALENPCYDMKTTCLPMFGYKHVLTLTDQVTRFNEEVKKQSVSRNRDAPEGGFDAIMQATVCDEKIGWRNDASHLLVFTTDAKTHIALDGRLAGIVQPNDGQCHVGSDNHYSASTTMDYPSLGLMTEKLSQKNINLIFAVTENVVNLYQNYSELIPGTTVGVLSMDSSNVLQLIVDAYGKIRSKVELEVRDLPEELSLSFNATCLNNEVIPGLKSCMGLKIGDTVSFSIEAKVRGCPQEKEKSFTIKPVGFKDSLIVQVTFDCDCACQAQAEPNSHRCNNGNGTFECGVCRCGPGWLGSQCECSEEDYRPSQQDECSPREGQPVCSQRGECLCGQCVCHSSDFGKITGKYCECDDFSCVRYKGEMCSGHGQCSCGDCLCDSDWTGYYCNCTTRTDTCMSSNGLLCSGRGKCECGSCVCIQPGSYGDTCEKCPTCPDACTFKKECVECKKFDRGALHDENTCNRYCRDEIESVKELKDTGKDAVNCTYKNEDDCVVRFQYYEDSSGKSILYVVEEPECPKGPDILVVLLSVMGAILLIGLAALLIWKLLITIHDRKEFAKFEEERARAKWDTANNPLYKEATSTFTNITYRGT
UniProt P01009: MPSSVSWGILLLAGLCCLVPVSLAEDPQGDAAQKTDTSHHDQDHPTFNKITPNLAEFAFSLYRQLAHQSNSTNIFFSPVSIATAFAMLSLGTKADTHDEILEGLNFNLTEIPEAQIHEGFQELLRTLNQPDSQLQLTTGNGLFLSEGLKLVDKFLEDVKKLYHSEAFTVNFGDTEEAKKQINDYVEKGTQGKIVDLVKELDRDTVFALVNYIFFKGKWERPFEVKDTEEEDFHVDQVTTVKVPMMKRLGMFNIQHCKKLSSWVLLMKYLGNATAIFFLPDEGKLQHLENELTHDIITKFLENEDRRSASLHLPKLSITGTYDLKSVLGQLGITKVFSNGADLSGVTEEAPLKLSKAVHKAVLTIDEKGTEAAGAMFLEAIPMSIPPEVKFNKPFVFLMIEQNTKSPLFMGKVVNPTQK

Substance	binding
SERPINA1 mutant at residue 98 (from UniProt P01009)	binds
SERPINA1 mutant at residue 64 (from UniProt P01009)	binds
SERPINA1 mutant at residue 329 (from UniProt P01009)	binds
SERPINA1 mutant at residue 334 (from UniProt P01009)	binds

Other lines, results leading:

binding	Substance
binds	SERPINA1 mutant at residue 95 (from UniProt P01009)
binds	SERPINA1 mutant at residue 328 (from UniProt P01009)
binds	SERPINA1 mutant at residue 113 (from UniProt P01009)
binds	SERPINA1 mutant at residue 102 (from UniProt P01009)
